Some results were stated once for a whole list of compounds, not compound by compound.
molecular target: hQC (Homo sapiens, UniProt Q16769); assay: QC inhibitor assay (hQC inhibition, Ki and IC50); assay type: biochemical
Procedure: All measurements were performed with a BioAssay Reader HTS-7000Plus for microplates (Perkin Elmer) at 30° C. QC activity was evaluated fluorometrically using H-Gln-βNA. The samples consisted of 0.2 mM fluorogenic substrate, 0.25 U pyroglutamyl aminopeptidase (Unizyme, Hørsholm, Denmark) in 0.2 M Tris/HCl, pH 8.0 containing 20 mM EDTA and an appropriately diluted aliquot of QC in a final volume of 250 μl. Excitation/emission wavelengths were 320/410 nm. The assay reactions were initiated by addition of glutaminyl cyclase. QC activity was determined from a standard curve of β-naphthylamine under assay conditions. One unit is defined as the amount of QC catalyzing the formation of 1 μmol pGlu-βNA from H-Gln-βNA per minute under the described conditions.
In a second fluorometric assay, QC was activity determined using H-Gln-AMC as substrate. Reactions were carried out at 30° C. utilizing the NOVOStar reader for microplates (BMG labtechnologies). The samples consisted of varying concentrations of the fluorogenic substrate, 0.1 U pyroglutamyl aminopeptidase (Qiagen) in 0.05 M Tris/HCl, pH 8.0 containing 5 mM EDTA and an appropriately diluted aliquot of QC in a final volume of 250 μl. Excitation/emission wavelengths were 380/460 nm. The assay reactions were initiated by addition of glutaminyl cyclase. QC activity was determined from a standard curve of 7-amino-4-methylcoumarin under assay conditions. The kinetic data were evaluated using GraFit sofware.
This novel assay was used to determine the kinetic parameters for most of the QC substrates. QC activity was analyzed spectrophotometrically using a continuous method, that was derived by adapting a previous discontinuous assay (Bateman, R. C. J. 1989 J Neurosci Methods 30, 23-28) utilizing glutamate dehydrogenase as auxiliary enzyme. Samples consisted of the respective QC substrate, 0.3 mM NADH, 14 mM α-Ketoglutaric acid and 30 U/ml glutamate dehydrogenase in a final volume of 250 μl. Reactions were started by addition of QC and persued by monitoring of the decrease in absorbance at 340 nm for 8-15 min.
The initial velocities were evaluated and the enzymatic activity was determined from a standard curve of ammonia under assay conditions. All samples were measured at 30° C., using either the SPECTRAFIuor Plus or the Sunrise (both from TECAN) reader for microplates. Kinetic data was evaluated using GraFit software.
For inhibitor testing, the sample composition was the same as described above, except of the putative inhibitory compound added. For a rapid test of QC-inhibition, samples contained 4 mM of the respective inhibitor and a substrate concentration at 1 KM. For detailed investigations of the inhibition and determination of Ki-values, influence of the inhibitor on the auxiliary enzymes was investigated first. In every case, there was no influence on either enzyme detected, thus enabling the reliable determination of the QC inhibition. The inhibitory constant was evaluated by fitting the set of progress curves to the general equation for competitive inhibition using GraFit software.

Protein sequences, listed by entry. Tags and fused reporters are not part of them. Residues count along the entry.
UniProt Q16769, 29-361: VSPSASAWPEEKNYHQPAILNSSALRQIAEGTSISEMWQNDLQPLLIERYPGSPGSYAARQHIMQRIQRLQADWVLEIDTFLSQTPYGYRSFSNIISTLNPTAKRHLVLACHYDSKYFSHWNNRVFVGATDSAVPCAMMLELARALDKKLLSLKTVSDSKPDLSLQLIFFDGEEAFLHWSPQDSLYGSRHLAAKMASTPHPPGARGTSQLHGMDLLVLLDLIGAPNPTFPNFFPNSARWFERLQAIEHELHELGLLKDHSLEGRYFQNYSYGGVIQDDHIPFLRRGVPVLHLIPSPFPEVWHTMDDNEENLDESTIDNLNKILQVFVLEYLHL

SMILES | IC50 [µM]
COC1=C(C)C(c2cc(Br)ccc2F)N(c2ccc3nc[nH]c3c2)C1=O (centres unmarked) [Example 6, 1-(1H-Benzo[d]imidazol-6-yl)-5-(5-bromo-2-fluorophenyl)-3-methoxy-4-methyl-1H-pyrrol-2(5H)-one] | < 10
CCC1=C(OC)C(=O)N(c2ccc3nc[nH]c3c2)C1c1cccc(F)c1F (centres unmarked) [Example 11, 1-(1H-Benzo[d]imidazol-6-yl)-4-ethyl-5-(2,3-difluorophenyl)-3-methoxy-1H-pyrrol-2(5H)-one] | < 10
COC1=C(C)C(C2CCCCC2)N(c2ccc3nc[nH]c3c2)C1=O (centres unmarked) [Example 1, 1-(1H-Benzo[d]imidazol-6-yl)-5-cyclohexyl-3-methoxy-4-methyl-1H-pyrrol-2(5H)-one] | < 10
COC1=C(C)[C@@H](c2cccc(F)c2F)N(c2ccc3nc[nH]c3c2)C1=O (single isomer, unassigned) [Example 10] | < 10
CCOC1=C(C)C(c2cccc(F)c2F)N(c2ccc3[nH]cnc3c2)C1=O (centres unmarked) [Example 33, 1-(1H-Benzo[d]imidazol-5-yl)-3-ethoxy-5-(2,3-difluorophenyl)-4-methyl-1H-pyrrol-2(5H)-one] | < 10
COC1=C(C)[C@@H](c2cccc(Cl)c2Cl)N(c2ccc3[nH]cnc3c2)C1=O (single isomer, unassigned) [Example 19] | < 10
COC1=C(c2ccc(F)cc2)C(c2cccc(F)c2F)N(c2ccc3nc[nH]c3c2)C1=O (centres unmarked) [Example 16, 1-(1H-Benzo[d]imidazol-6-yl)-5-(2,3-difluorophenyl)-4-(4-fluorophenyl)-3-methoxy-1H-pyrrol-2(5H)-one] | < 10
COC1=C(C)C(c2cccc(Cl)c2Cl)N(c2ccc3[nH]cnc3c2)C1=O (centres unmarked) [Example 17, 1-(1H-Benzo[d]imidazol-6-yl)-5-(2,3-dichlorophenyl)-3-methoxy-4-methyl-1H-pyrrol-2(5H)-one] | < 10
COC1=C(C)C(c2cccc(F)c2F)N(c2ccc3nc[nH]c3c2)C1=O (centres unmarked) [Example 8, 1-(1H-Benzo[d]imidazol-6-yl)-5-(2,3-difluorophenyl)-3-methoxy-4-methyl-1H-pyrrol-2(5H)-one] | < 10
COC1=C(C)[C@H](c2cccc(F)c2F)N(c2ccc3nc[nH]c3c2)C1=O (single isomer, unassigned) [Example 9] | < 10
COC1=C(c2ccccc2)C(c2cc(F)cc(F)c2F)N(c2ccc3[nH]cnc3c2)C1=O (centres unmarked) [Example 5, 1-(1H-Benzo[d]imidazol-5-yl)-5-(2,3,5-trifluorophenyl)-3-methoxy-4-phenyl-1H-pyrrol-2(5H)-one] | < 10
COC1=C(C)[C@H](c2cccc(Cl)c2Cl)N(c2ccc3[nH]cnc3c2)C1=O (single isomer, unassigned) [Example 18] | < 10
CCCC1=C(OC)C(=O)N(c2ccc3nc[nH]c3c2)C1c1cccc(F)c1F (centres unmarked) [Example 12, 1-(1H-Benzo[d]imidazol-6-yl)-5-(2,3-difluorophenyl)-3-methoxy-4-propyl-1H-pyrrol-2(5H)-one] | < 10
COC1=C(C)C(c2ccc(-c3ccccc3)cc2)N(c2ccc3nc[nH]c3c2)C1=O (centres unmarked) [Example 21, 1-(1H-Benzo[d]imidazol-6-yl)-3-methoxy-4-methyl-5-(biphen-4-yl)-1H-pyrrol-2(5H)-one] | < 10
COC1=C(C)C(c2cc(F)c(F)cc2F)N(c2ccc3[nH]cnc3c2)C1=O (centres unmarked) [Example 4, 1-(1H-Benzo[d]imidazol-5-yl)-5-(2,4,5-trifluorophenyl)-3-methoxy-4-methyl-1H-pyrrol-2(5H)-one] | < 10
COC1=C(c2ccccc2)C(c2cccc(F)c2F)N(c2ccc3nc[nH]c3c2)C1=O (centres unmarked) [Example 15, 1-(1H-Benzo[d]imidazol-6-yl)-5-(2,3-difluorophenyl)-3-methoxy-4-phenyl-1H-pyrrol-2(5H)-one] | < 10
COC1=C(c2ccccc2)C(c2cnc3ccccc3c2)N(c2ccc3[nH]cnc3c2)C1=O (centres unmarked) [Example 24, 1-(1H-Benzo[d]imidazol-5-yl)-3-methoxy-4-phenyl-5-(quinolin-3-yl)-1H-pyrrol-2(5H)-one] | < 10
COC1=C(C)C(c2c(F)cccc2F)N(c2ccc3[nH]cnc3c2)C1=O (centres unmarked) [Example 3, 1-(1H-Benzo[d]imidazol-5-yl)-5-(2,6-difluorophenyl)-3-methoxy-4-methyl-1H-pyrrol-2(5H)-one] | < 10
COC1=C(C)C(c2ccc(OC3CCCCC3)cc2)N(c2ccc3nc[nH]c3c2)C1=O (centres unmarked) [Example 23, 1-(1H-Benzo[d]imidazol-6-yl)-5-(4-(cyclohexyloxy)phenyl)-3-methoxy-4-methyl-1H-pyrrol-2(5H)-one] | < 10
CC1=C(OCC(F)(F)F)C(=O)N(c2ccc3[nH]cnc3c2)C1c1cccc(F)c1F (centres unmarked) [Example 35, 3-(2,2,2-trifluoroethoxy)-1-(1H-benzo[d]imidazol-5-yl)-5-(2,3-difluorophenyl)-4-methyl-1H-pyrrol-2(5H)-one] | < 10
COC1=C(C)C(C(C)C)N(c2ccc3nc[nH]c3c2)C1=O (centres unmarked) [Example 2, 1-(1H-Benzo[d]imidazol-6-yl)-5-isopropyl-3-methoxy-4-methyl-1H-pyrrol-2(5H)-one] | < 10
COC1=C(C)C(c2ccc(N3CCCCC3)cc2)N(c2ccc3nc[nH]c3c2)C1=O (centres unmarked) [Example 22, 1-(1H-Benzo[d]imidazol-6-yl)-3-methoxy-4-methyl-5-(4-(piperidin-1-yl)phenyl)-1H-pyrrol-2(5H)-one] | < 10
CC1=C(OCC(F)(F)C(F)F)C(=O)N(c2ccc3[nH]cnc3c2)C1c1cccc(F)c1F (centres unmarked) [Example 34, 3-(2,2,3,3-tetrafluoropropoxy)-1-(1H-benzo[d]imidazol-5-yl)-5-(2,3-difluoro-phenyl)-4-methyl-1H-pyrrol-2(5H)-one] | < 10
COC1=C(C)C(c2c(F)ccc(F)c2Cl)N(c2ccc3nc[nH]c3c2)C1=O (centres unmarked) [Example 7, 1-(1H-Benzo[d]imidazol-6-yl)-5-(2-chloro-3,6-difluorophenyl)-3-methoxy-4-methyl-1H-pyrrol-2(5H)-one] | < 10
COC1=C(C(C)C)C(c2cccc(F)c2F)N(c2ccc3nc[nH]c3c2)C1=O (centres unmarked) [Example 13, 1-(1H-Benzo[d]imidazol-6-yl)-5-(2,3-difluorophenyl)-4-isopropyl-3-methoxy-1H-pyrrol-2(5H)-one] | < 10
COC1=C(C)C(c2ccc(N3CCOCC3)cc2)N(c2ccc3nc[nH]c3c2)C1=O (centres unmarked) [Example 20, 1-(1H-Benzo[d]imidazol-6-yl)-3-methoxy-4-methyl-5-(4-morpholinophenyl)-1H-pyrrol-2(5H)-one] | < 10
